No constants are given. Whether binding was seen depends on the method and setting. Some results given as binding are weak or reduced against the parent protein; the word gives no strength.
Key:
[1] = target: delta opioid receptor (DOR), mouse cortex (mouse (endogenous in mouse cortex)) (UniProt P32300); assay: ELISA; brain membranes (5 ug/well) coated on 96-well plates, fixed with 4% PFA, blocked with 1% BSA, CB1R-DOR heteromer-selective mAb 1:100 overnight at 4 C, HRP secondary, read at 490 nm; wild type, CB1R -/- and DOR -/- mice; sham and L5SNT lesioned rats 14 days after surgery
[2] = target: delta opioid receptor (DOR), expressed in N2A cells (N2A-DOR) (UniProt P32300); assay: ELISA; membranes of N2A or HEK293 cells expressing receptor combinations, probed with the CB1R-DOR heteromer-selective mouse monoclonal antibody (1:10 hybridoma supernatant, HRP anti-mouse IgG); both receptors together in the same membranes

- binding [1]: binds
- binding [2]: binds
Substance: cannabinoid type 1 receptor (CB1R), endogenous in N2A cells and in mouse cortex (from UniProt P47746 1-473)
